These are yes or no findings as the source states them, for the method shown. Some entries that bind do so weakly or less than the wild type.
What was measured:
[1] = target: murine pro-myostatin (proGDF8) (mouse) (UniProt O08689); experiment: immunofluorescence on cryosectioned mouse tibialis anterior muscle
[2] = target: murine latent myostatin (latent GDF8) (mouse) (UniProt O08689); experiment: as above
[3] = target: murine pro-myostatin (proGDF8) (mouse) (UniProt O08689); experiment: ForteBio BLI (Table 23)
[4] = target: murine latent myostatin (latent GDF8) (mouse) (UniProt O08689); experiment: ForteBio BLI (Table 23)

Amino acid sequences for entries named in this document (tags omitted). A change or cut given only in a name is not applied to a line headed by its entry.
UniProt O08689: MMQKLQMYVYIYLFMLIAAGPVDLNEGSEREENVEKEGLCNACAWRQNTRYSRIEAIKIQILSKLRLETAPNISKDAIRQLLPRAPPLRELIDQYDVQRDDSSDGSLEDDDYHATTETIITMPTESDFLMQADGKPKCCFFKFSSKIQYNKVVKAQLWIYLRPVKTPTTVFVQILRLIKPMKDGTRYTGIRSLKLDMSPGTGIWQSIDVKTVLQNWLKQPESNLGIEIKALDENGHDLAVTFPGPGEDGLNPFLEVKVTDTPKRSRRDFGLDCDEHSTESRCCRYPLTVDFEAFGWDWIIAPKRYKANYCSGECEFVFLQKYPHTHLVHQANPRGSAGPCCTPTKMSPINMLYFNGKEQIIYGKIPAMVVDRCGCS

binding [1]: binds
binding [2]: binds
binding [3]: binds
binding [4]: binds
B1: Ab10 (antibody, V domains shown)
VH: EVQLVQSGGGVVQSGRSLRLSCVASGFSFSNYGMHWVRQAPGKGLEWLAFIWYDGSNKWYADSVKGRFTISRDNSKNALYLQMNSLRAEDTAVYYCARDRYSSSWGGGFDYWGQGTVLTVSS
VL: NFMLTQPHSVSESPGRTVTIPCSGRGGSIASDSVQWYQQRPGSAPTTIIYEDNQRPSGVPDRFSGSVDSSSNSASLTISGLRTEDEADYYCQSYDASSLWVFGGKTKLTVLG
